PubChem BioAssay AID504764 – Drosophila RNAi Screening Center – 2011
The deposit covers about 22,000 reagents; this is a random part of those that have a named target and a result. Over the whole deposit, 403 (1.9%) got an active call. 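Unnormalised raw counts per well; ratio z-scores behind the hit calls and whether each hit raises or lowers signal are not deposited.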 Reagents against one gene are numbered here. No sequences are given here. The record does not give: the amount of reagent.

Aim: 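Genes whose knock-down alters Notch-dependent transcription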 (primary screen)
Cell system: Drosophila Kc167 cells
Reagent: long dsRNA against Drosophila genes
Duration: about 5 days (4 days dsRNA, then 24 h after transfection)
Conditions: transfection of constitutively active membrane-tethered Notch lacking the extracellular domain, read 24 h later
Measured: 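Firefly luciferase from an E(spl)m3 reporter with active Notch, plus control-promoter and uninduced reporter wells for normalisation; unnormalised counts, duplicate wells a and b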
Reading the numbers: induced reporter light, run 1, well a and induced reporter light, run 1, well b: higher = more light from the Notch target reporter with active Notch; control promoter light, run 1, well a and control promoter light, run 1, well b: higher = more light from the viral control promoter (cell number, transfection, viability); uninduced reporter light, run 1, well a: higher = more light from the Notch target reporter without active Notch
Active means: 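Hit if the duplicate-averaged log2 ratio of induced to control-promoter light gives a plate-wise z beyond ±2, or induced to uninduced beyond ±1.8; weak-control or discordant-duplicate wells dropped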
Meaning of the calls: active = modifier hit (raised or lowered Notch signal); inactive = not a hit

no.	Gene	reagent	induced reporter light, run 1, well a	induced reporter light, run 1, well b	control promoter light, run 1, well a	control promoter light, run 1, well b	uninduced reporter light, run 1, well a	Outcome
1	ChAT	1	75550	69785	1.14e5	1.00e5	9365	inactive
2	ChAT	2	2.21e5	1.92e5	1.98e5	2.02e5	13620	inactive
3	hbn	1	3185	1810	3185	3590	505	inactive
4	hbn	2	58530	49590	52255	69450	3350	inactive
5	hbn	3	30560	31395	26795	21970	1890	inactive
6	CkIIalpha	1	32800	34255	36750	27285	1860	inactive
7	CG15745 (retired record)	1	1.17e5	1.37e5	2.03e5	1.81e5	8395	inactive
8	Kcmf1	1	85340	78445	56545	45325	6080	inactive
9	px	1	45335	48095	35285	37315	8770	inactive
10	CG12483	1	1.28e5	1.25e5	2.26e5	1.30e5	7690	inactive
11	nebu	1	1.94e5	1.78e5	1.10e5	87365	12510	active
12	nebu	2	2.18e5	1.75e5	1.94e5	1.65e5	5185	active
13	CG13876	1	92455	1.19e5	1.77e5	1.55e5	8245	inactive
14	CG1074	1	1.40e5	1.03e5	64845	70965	7770	active
15	Nipped-B	1	78870	54955	89480	56210	4920	inactive
16	CG30047	1	1.70e5	1.56e5	2.26e5	2.90e5	18285	inactive
17	Agpat1	1	1.28e5	1.23e5	2.57e5	3.15e5	8530	inactive
18	Agpat1	2	1.53e5	1.39e5	2.84e5	2.39e5	9190	inactive
19	CG14096	1	1.46e5	1.03e5	1.36e5	93930	10450	inactive
20	smo	1	2.41e5	2.17e5	1.98e5	2.57e5	22878	inactive
21	PK2-R2	1	2.33e5	2.45e5	2.64e5	2.72e5	22215	inactive
22	awd	1	1.06e5	1.02e5	1.41e5	2.09e5	7570	inactive
23	CG14200	1	4215	4010	5328	5120	5120	inactive
24	CysRS-m	1	1.62e5	1.73e5	1.66e5	1.62e5	15365	inactive
25	CG4363	1	56880	52615	46450	55860	3028	inactive
26	Mtch	1	63945	86790	1.44e5	1.75e5	6125	inactive
27	CG14442	1	53325	45640	51235	54215	7220	inactive
28	CG13297	1	1.46e5	1.66e5	1.58e5	1.39e5	5465	inactive
29	RpL24-like	1	76385	77820	64335	42470	5535	inactive
30	CG12880	1	1.77e5	1.63e5	2.02e5	2.42e5	12055	inactive
31	Npc1a	1	93330	1.14e5	55995	77260	11460	inactive
32	CG13775	1	1.31e5	1.12e5	1.72e5	1.85e5	8332	inactive
33	CG17930	1	1.92e5	2.06e5	2.21e5	2.53e5	17850	inactive
34	PGRP-LE	1	1.84e5	1.85e5	2.37e5	2.08e5	13032	inactive
35	HSPC300	1						inactive
36	Vps37B	1	91810	1.08e5	99150	73045	7800	inactive
37	CG14410	1	96550	93890	1.31e5	1.38e5	13570	inactive
38	mip120	1	56090	64120	97495	85955	5965	inactive
39	CG17712	1	1.92e5	1.76e5	1.45e5	1.72e5	16532	inactive
40	CG32241	1	2.12e5	1.63e5	2.01e5	1.99e5	13550	inactive
41	sesB	1	68645	51915	1.73e5	1.24e5	4965	inactive
42	ATPsynbetaL	1	1.37e5	1.79e5	1.83e5	1.40e5	9300	inactive
43	brun	1	1.53e5	1.81e5	1.59e5	1.62e5	10735	inactive
44	CG13053	1	1.39e5	1.52e5	2.01e5	1.39e5	8335	inactive
45	mi	1	1.42e5	1.39e5	96115	87950	9845	inactive
46	Jon44E	1	1.24e5	1.02e5	1.71e5	1.68e5	12900	inactive
47	CG1137	1	83940	87705	98655	65770	5360	inactive
48	CG7878	1	81660	94095	95575	79620	7210	inactive
49	CG14546	1	1.38e5	1.59e5	1.75e5	1.69e5	10760	inactive
50	vtd	1	24945	49790	36715	39480	6415	inactive

Entries above marked active, once more:
Gene	reagent	induced reporter light, run 1, well a	induced reporter light, run 1, well b	control promoter light, run 1, well a	control promoter light, run 1, well b	uninduced reporter light, run 1, well a	Outcome
nebu	1	1.94e5	1.78e5	1.10e5	87365	12510	active
nebu	2	2.18e5	1.75e5	1.94e5	1.65e5	5185	active
CG1074	1	1.40e5	1.03e5	64845	70965	7770	active
